Measurements: the supplement of paper PMC10849652
The list shows a part of the results.

Chains of the proteins cited; added tags and fusions are not shown. Lines headed by an entry give the natural chain unless they say otherwise; changes in a name come on top.
UniProt O60664: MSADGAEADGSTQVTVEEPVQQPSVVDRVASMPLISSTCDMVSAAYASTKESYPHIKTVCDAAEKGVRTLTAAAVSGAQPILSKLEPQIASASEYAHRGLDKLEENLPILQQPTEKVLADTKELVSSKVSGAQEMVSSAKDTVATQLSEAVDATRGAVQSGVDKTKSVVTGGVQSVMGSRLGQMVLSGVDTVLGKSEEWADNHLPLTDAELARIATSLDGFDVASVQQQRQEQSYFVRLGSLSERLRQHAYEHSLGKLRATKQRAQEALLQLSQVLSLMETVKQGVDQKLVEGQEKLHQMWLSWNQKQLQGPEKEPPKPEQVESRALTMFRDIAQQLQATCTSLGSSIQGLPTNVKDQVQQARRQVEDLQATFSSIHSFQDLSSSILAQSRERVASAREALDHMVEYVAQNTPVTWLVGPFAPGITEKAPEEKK
UniProt O94903: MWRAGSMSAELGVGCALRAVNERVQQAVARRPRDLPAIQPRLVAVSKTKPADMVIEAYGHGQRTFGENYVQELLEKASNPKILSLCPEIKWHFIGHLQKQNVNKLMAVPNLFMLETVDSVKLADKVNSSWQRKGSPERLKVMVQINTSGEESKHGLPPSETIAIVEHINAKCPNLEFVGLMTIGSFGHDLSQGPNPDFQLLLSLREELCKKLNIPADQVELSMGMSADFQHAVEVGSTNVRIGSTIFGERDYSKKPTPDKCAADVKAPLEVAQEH
UniProt Q04941: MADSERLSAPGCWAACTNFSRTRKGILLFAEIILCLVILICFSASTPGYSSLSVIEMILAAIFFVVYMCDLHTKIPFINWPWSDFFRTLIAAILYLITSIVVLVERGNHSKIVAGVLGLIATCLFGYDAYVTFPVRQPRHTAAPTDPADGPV
UniProt Q9Y535: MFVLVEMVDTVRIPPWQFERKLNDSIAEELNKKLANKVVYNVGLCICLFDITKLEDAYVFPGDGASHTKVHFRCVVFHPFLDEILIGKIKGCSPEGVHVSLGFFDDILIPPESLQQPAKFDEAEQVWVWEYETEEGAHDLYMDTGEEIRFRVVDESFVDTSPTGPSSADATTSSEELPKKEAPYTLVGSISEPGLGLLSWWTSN
UniProt P05423: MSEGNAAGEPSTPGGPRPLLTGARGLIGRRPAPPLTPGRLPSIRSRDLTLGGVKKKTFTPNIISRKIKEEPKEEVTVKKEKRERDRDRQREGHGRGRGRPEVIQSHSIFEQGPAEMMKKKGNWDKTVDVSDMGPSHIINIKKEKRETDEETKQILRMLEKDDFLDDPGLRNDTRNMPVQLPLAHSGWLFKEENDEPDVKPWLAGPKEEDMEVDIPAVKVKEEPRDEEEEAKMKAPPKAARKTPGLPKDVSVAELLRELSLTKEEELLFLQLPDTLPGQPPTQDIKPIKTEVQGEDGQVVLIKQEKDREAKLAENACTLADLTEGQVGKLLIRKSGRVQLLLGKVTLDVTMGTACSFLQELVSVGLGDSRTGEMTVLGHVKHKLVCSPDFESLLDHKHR
UniProt P0DPB6, whole entry, looked up: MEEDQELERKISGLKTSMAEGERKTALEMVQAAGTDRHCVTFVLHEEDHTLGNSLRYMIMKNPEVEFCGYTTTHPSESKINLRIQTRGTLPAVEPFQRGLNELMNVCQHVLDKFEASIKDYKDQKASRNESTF
UniProt O15305: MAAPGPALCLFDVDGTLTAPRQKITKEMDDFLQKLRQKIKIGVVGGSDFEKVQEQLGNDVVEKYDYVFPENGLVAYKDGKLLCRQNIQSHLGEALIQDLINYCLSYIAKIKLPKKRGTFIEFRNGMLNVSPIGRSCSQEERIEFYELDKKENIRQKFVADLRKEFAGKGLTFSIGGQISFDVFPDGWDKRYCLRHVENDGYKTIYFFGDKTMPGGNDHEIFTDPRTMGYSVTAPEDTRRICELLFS
UniProt P13797: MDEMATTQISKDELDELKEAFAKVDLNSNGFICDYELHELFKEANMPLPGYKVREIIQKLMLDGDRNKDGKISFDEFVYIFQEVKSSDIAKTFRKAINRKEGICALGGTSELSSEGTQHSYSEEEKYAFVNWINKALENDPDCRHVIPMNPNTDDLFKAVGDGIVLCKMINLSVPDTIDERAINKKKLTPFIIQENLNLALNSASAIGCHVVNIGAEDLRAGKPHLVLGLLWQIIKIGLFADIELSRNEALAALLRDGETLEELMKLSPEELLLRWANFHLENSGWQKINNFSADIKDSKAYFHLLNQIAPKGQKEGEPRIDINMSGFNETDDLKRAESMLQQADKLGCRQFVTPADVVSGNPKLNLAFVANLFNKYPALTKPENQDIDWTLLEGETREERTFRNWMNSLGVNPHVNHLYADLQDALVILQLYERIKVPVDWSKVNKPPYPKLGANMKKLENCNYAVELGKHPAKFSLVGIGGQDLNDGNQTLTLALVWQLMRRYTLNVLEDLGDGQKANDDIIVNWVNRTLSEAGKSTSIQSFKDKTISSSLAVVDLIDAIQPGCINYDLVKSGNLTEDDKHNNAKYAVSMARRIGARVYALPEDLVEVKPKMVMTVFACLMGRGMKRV
UniProt Q10713: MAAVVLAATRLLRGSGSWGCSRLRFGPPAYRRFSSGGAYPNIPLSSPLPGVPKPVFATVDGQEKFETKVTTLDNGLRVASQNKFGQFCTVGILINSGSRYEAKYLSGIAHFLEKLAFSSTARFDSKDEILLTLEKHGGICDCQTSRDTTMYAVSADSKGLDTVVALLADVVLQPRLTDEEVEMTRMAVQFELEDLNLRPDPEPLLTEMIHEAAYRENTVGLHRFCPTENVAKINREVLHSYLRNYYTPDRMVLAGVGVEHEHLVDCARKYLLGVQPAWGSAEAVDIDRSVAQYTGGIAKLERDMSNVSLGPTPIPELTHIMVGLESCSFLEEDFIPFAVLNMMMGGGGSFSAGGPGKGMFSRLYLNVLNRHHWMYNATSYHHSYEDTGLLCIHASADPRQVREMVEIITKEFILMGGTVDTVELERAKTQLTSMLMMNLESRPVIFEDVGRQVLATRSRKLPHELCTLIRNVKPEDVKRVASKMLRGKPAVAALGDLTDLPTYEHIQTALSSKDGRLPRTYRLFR
UniProt Q15126: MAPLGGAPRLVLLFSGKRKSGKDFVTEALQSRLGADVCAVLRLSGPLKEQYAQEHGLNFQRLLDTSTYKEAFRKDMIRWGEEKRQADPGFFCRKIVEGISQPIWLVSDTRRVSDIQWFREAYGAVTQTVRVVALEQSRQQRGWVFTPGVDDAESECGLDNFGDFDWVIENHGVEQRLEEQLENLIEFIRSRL
UniProt P00491: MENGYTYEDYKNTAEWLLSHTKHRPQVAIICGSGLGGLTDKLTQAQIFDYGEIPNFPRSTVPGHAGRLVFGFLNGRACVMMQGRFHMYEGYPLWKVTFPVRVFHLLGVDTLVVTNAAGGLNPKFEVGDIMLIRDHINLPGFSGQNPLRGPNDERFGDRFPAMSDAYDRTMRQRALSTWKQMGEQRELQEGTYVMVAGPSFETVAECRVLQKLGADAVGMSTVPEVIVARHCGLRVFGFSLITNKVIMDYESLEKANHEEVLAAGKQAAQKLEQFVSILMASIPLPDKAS
UniProt Q9UIW2: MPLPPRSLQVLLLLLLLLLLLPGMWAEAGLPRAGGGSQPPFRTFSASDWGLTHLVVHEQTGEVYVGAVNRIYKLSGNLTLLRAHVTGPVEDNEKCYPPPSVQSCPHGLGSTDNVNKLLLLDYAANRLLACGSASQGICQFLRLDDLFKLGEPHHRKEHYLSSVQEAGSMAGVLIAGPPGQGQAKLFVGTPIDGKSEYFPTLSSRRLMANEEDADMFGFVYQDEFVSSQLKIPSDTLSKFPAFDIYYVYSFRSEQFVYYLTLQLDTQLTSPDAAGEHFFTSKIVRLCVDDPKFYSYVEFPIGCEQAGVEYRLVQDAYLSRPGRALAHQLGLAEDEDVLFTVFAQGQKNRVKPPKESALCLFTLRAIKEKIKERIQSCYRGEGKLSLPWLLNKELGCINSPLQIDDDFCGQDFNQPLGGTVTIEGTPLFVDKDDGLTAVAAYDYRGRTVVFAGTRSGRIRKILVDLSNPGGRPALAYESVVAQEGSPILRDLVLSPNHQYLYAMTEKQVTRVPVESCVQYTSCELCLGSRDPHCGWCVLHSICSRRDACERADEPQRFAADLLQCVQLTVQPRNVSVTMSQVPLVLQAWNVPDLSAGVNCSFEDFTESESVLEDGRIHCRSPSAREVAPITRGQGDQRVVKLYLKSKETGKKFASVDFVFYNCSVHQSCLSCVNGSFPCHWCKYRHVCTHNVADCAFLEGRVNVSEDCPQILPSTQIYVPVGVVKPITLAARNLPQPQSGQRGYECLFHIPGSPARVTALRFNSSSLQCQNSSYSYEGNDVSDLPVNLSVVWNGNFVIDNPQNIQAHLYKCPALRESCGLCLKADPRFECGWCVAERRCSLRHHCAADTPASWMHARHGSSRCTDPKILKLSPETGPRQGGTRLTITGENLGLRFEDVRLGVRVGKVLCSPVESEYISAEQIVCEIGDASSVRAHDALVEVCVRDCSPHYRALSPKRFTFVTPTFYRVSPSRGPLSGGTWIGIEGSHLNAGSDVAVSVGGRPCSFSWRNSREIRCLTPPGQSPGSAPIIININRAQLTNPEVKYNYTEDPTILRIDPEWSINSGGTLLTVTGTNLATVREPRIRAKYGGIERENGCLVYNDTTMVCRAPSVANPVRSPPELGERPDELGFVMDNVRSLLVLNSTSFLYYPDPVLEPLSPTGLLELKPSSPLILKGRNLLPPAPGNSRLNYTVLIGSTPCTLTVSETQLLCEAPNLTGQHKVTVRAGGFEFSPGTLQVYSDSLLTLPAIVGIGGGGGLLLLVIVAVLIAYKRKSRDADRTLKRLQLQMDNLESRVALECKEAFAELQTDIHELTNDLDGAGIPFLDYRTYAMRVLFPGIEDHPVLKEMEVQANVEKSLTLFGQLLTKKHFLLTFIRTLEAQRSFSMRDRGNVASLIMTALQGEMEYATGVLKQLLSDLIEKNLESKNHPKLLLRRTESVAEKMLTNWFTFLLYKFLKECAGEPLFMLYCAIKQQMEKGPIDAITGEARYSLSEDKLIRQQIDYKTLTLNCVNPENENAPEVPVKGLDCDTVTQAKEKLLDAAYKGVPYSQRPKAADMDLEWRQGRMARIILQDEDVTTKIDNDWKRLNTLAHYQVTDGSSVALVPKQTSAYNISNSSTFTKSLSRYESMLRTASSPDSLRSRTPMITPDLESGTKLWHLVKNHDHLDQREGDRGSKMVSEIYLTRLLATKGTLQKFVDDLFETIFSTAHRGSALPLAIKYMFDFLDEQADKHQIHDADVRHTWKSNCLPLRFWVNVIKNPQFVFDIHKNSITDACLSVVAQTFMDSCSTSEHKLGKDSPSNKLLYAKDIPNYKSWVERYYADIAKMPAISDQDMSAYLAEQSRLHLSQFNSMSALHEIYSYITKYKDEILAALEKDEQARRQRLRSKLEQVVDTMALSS
UniProt Q15054: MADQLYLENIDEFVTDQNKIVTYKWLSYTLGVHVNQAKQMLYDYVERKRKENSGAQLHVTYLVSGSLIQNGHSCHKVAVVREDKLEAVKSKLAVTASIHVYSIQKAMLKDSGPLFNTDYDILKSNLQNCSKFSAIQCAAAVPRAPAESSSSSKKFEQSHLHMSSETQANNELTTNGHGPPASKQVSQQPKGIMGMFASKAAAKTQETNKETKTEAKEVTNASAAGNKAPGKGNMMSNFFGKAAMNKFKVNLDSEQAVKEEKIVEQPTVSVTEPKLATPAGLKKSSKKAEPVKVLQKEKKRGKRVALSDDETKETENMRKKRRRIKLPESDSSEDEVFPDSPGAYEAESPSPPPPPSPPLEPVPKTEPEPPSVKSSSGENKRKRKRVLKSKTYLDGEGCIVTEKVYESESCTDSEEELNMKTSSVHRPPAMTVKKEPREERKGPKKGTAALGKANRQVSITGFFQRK
UniProt Q9Y2Y1: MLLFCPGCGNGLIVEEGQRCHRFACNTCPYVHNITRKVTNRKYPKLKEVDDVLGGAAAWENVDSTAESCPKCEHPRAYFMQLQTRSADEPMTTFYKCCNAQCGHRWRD
UniProt Q9NUX5: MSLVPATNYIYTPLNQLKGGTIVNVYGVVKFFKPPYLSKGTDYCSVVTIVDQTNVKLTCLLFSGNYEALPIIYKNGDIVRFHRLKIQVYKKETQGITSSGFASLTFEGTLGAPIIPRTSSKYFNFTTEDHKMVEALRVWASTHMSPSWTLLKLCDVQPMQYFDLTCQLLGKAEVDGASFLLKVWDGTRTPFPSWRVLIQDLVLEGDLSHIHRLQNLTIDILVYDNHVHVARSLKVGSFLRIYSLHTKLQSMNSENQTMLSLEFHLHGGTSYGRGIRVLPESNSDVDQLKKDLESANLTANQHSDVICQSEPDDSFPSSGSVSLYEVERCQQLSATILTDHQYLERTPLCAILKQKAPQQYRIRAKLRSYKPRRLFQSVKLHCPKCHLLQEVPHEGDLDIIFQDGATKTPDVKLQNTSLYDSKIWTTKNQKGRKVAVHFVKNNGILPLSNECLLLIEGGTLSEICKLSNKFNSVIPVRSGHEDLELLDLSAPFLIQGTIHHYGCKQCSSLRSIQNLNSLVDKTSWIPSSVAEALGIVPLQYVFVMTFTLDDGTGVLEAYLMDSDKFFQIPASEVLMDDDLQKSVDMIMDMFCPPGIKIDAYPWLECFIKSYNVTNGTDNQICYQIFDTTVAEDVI

Experiments:
Assay in all cases: log2 fold change, soluble protein after heating vs DMSO (PISA); higher = thermal stabilisation; K562 lysate, 10 uM; active = over 0.2 and 3.5 SD of the protein, either way, in both replicates (recomputed)
lapatinib = compound: CS(=O)(=O)CCNCc1ccc(-c2ccc3ncnc(Nc4ccc(OCc5cccc(F)c5)c(Cl)c4)c3c2)o1 [lapatinib]
In short: (§1)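 Following dounce homogenisation of K562 pellets in PBS pH 7.4 with 1 mM MgCl2, crude extract at 1 mg/mL protein was incubated for 30 min with 10 μM compound. Aliquots were then heated for 3 min over 48°C-58°C and pooled, NP-40 was added to 0.5% at 4°C, and soluble protein was recovered as the supernatant at 21,000xg for 90 min. Channel-sum-equalised TMTpro 16plex LC-MS/MS quantified this protein. Each value, from duplicates, is a log-two fold change in thermal stability relative to solvent controls.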

pictilisib = compound: CS(=O)(=O)N1CCN(Cc2cc3nc(-c4cccc5[nH]ncc45)nc(N4CCOCC4)c3s2)CC1 [pictilisib]
In short: as §1

crizotinib = compound: C[C@@H](Oc1cc(-c2cnn(C3CCNCC3)c2)cnc1N)c1c(Cl)ccc(F)c1Cl [crizotinib]
In short: as §1

[1] = compound: C[C@H](C1=CC=C(C=C1)C(=O)NC2=C3C=CNC3=NC=C2)N
In short: as §1

duvelisib = compound: C[C@H](Nc1ncnc2nc[nH]c12)c1cc2cccc(Cl)c2c(=O)n1-c1ccccc1 [duvelisib]
In short: as §1

gandotinib = compound: Cc1cc(Nc2cc(CN3CCOCC3)c3nc(C)c(Cc4ccc(Cl)cc4F)n3n2)n[nH]1 [gandotinib]
In short: as §1

tozasertib = compound: Cc1cc(Nc2cc(N3CCN(C)CC3)nc(Sc3ccc(NC(=O)C4CC4)cc3)n2)n[nH]1 [tozasertib]
In short: as §1

doramapimod = compound: Cc1ccc(-n2nc(C(C)(C)C)cc2NC(=O)Nc2ccc(OCCN3CCOCC3)c3ccccc23)cc1 [doramapimod]
In short: as §1

bafetinib = compound: Cc1ccc(NC(=O)c2ccc(CN3CC[C@H](N(C)C)C3)c(C(F)(F)F)c2)cc1Nc1nccc(-c2cncnc2)n1 [bafetinib]
In short: as §1

[2] = compound: Cc1cccc(CC(=O)N2CCc3c2ccc(-c2cn(C)c4ncnc(N)c24)c3F)n1
In short: as §1

nilotinib = compound: Cc1cn(-c2cc(NC(=O)c3ccc(C)c(Nc4nccc(-c5cccnc5)n4)c3)cc(C(F)(F)F)c2)cn1 [nilotinib]
In short: as §1

[3] = compound: Cc1nc(Nc2n[nH]c3c2CN(C(=O)N[C@H](CN(C)C)c2ccccc2)C3(C)C)c2sccc2n1
In short: as §1

dasatinib = compound: Cc1nc(Nc2ncc(C(=O)Nc3c(C)cccc3Cl)s2)cc(N2CCN(CCO)CC2)n1 [dasatinib]
In short: as §1

[4] = compound: Cc1ncc(-c2ccnc(Nc3ccc(S(C)(=O)=O)cc3)n2)n1C(C)C
In short: as §1

[5] = compound: Cn1cc(-c2ccc3c(c2)CCN3C(=O)Cc2cccc(C(F)(F)F)c2)c2c(N)ncnc21
In short: as §1

quisinostat = compound: Cn1cc(CNCC2CCN(c3ncc(C(=O)NO)cn3)CC2)c2ccccc21 [quisinostat]
In short: as §1

tipifarnib = compound: Cn1cncc1[C@@](N)(c1ccc(Cl)cc1)c1ccc2c(c1)c(-c1cccc(Cl)c1)cc(=O)n2C [tipifarnib]
In short: as §1

[6] = compound: NC(=O)Nc1cc(-c2cccc(F)c2)sc1C(=O)N[C@H]1CCCNC1
In short: as §1

[7] = compound: NC(=O)c1cnc(N[C@@H]2CCCC[C@@H]2N)nc1Nc1cccc(-n2nccn2)c1
In short: as §1

[8] = compound: NC1(c2ccc(-c3nc4ccn5c(=O)[nH]nc5c4cc3-c3ccccc3)cc2)CCC1
In short: as §1

Measured: log2 fold change

PLIN3 (UniProt O60664)
inactive: lapatinib 0.03 | pictilisib -0.023 | crizotinib 0.06 | [1] 0.018 | duvelisib 0.001 | gandotinib 0.019 | tozasertib 0.02 | doramapimod 0.001 | bafetinib 0.045 | [2] -0.101 | nilotinib 0.029 | [3] -0.001 | dasatinib 0.006 | [4] 0.015 | [5] -0.012 | quisinostat 0.024 | tipifarnib 0.031 | [6] -0.016 | [7] -0.015 | [8] 0.052

PLPBP (UniProt O94903)
inactive: lapatinib 0.026 | pictilisib -0.014 | crizotinib -0.068 | [1] 0.002 | duvelisib -0.028 | gandotinib -0.015 | tozasertib 0.013 | doramapimod 0.017 | bafetinib 0.015 | [2] 0.038 | nilotinib 0.049 | [3] -0.016 | dasatinib 0.003 | [4] -0.036 | [5] -0.014 | quisinostat -0.116 | tipifarnib 0.062 | [6] -0.01 | [7] 0.012 | [8] -0.025

PLP2 (UniProt Q04941)
inactive: lapatinib 0.009 | pictilisib -0.064 | crizotinib -0.069 | [1] 0.03 | duvelisib -0.258 | gandotinib -0.031 | tozasertib -0.053 | doramapimod 0.014 | bafetinib 0.157 | [2] 0.044 | nilotinib -0.129 | [3] 0.046 | dasatinib -0.096 | [4] 0.109 | [5] -0.004 | quisinostat 0.075 | tipifarnib 0.106 | [6] -0.035 | [7] -0.001 | [8] -0.021

POLR2G (UniProt P62487)
inactive: lapatinib -0.001 | pictilisib -0.048 | crizotinib 0.016 | [1] -0.04 | duvelisib 0.03 | gandotinib -0.002 | tozasertib -0.04 | doramapimod -0.011 | bafetinib 0.004 | [2] -0.006 | nilotinib 0.01 | [3] -0.02 | dasatinib -0.024 | [4] 0.007 | [5] 0 | quisinostat 0.01 | tipifarnib 0.007 | [6] 0.001 | [7] 0.011 | [8] -0.016

POLR3H (UniProt Q9Y535)
inactive: lapatinib -0.039 | pictilisib -0.019 | crizotinib -0.082 | [1] -0.191 | duvelisib 0.162 | gandotinib 0.022 | tozasertib -0.048 | doramapimod -0.047 | bafetinib -0.023 | [2] 0.084 | nilotinib 0.019 | [3] -0.104 | dasatinib -0.013 | [4] 0.015 | [5] 0.037 | quisinostat -0.038 | tipifarnib 0.28 | [6] -0.023 | [7] 0 | [8] 0.189

POLR3D (UniProt P05423)
inactive: lapatinib 0.246 | pictilisib -0.013 | crizotinib -0.031 | [1] -0.099 | duvelisib 0.025 | gandotinib 0 | tozasertib 0 | doramapimod 0.015 | bafetinib -0.036 | [2] 0.098 | nilotinib -0.019 | [3] 0.011 | dasatinib -0.004 | [4] 0.012 | [5] -0.095 | quisinostat -0.055 | tipifarnib 0.025 | [6] -0.009 | [7] 0.002 | [8] -0.021

POLR1D (UniProt P0DPB6)
inactive: lapatinib -0.001 | pictilisib -0.02 | crizotinib -0.06 | [1] -0.031 | duvelisib 0.025 | gandotinib -0.004 | tozasertib -0.063 | doramapimod -0.025 | bafetinib -0.082 | [2] -0.003 | nilotinib -0.021 | [3] -0.021 | dasatinib 0.015 | [4] -0.039 | [5] -0.013 | quisinostat -0.039 | tipifarnib 0.07 | [6] 0.054 | [7] 0.013 | [8] 0.01

PMM2 (UniProt O15305)
inactive: lapatinib -0.031 | pictilisib -0.006 | crizotinib -0.001 | [1] -0.075 | duvelisib -0.013 | gandotinib 0.037 | tozasertib -0.011 | doramapimod 0.055 | bafetinib 0.018 | [2] 0.056 | nilotinib -0.025 | [3] 0.009 | dasatinib 0.019 | [4] -0.034 | [5] 0.011 | quisinostat 0.02 | tipifarnib 0.044 | [6] 0 | [7] 0.025 | [8] 0.059

PLS3 (UniProt P13797)
inactive: lapatinib -0.013 | pictilisib -0.051 | crizotinib 0.004 | [1] -0.151 | duvelisib 0.036 | gandotinib 0.097 | tozasertib -0.011 | doramapimod -0.008 | bafetinib 0.032 | [2] 0.082 | nilotinib 0.029 | [3] 0.026 | dasatinib 0.018 | [4] 0.024 | [5] -0.019 | quisinostat -0.024 | tipifarnib 0.011 | [6] -0.004 | [7] -0.001 | [8] -0.013

PMPCA (UniProt Q10713)
active: dasatinib 0.672
inactive: lapatinib -0.02 | pictilisib -0.043 | crizotinib -0.048 | [1] -0.053 | duvelisib 0.053 | gandotinib -0.004 | tozasertib 0.016 | doramapimod 0.079 | bafetinib 0.046 | [2] 0.025 | nilotinib 0.005 | [3] 0.052 | [4] 0 | [5] -0.017 | quisinostat -0.041 | tipifarnib 0.187 | [6] -0.013 | [7] -0.009 | [8] 0.003

PMVK (UniProt Q15126)
inactive: lapatinib -0.093 | pictilisib -0.081 | crizotinib -0.047 | [1] -0.028 | duvelisib 0.018 | gandotinib -0.037 | tozasertib 0.107 | doramapimod 0.111 | bafetinib 0.001 | [2] 0.095 | nilotinib -0.082 | [3] 0.002 | dasatinib 0.021 | [4] 0.028 | [5] 0.023 | quisinostat 0.018 | tipifarnib 0.029 | [6] 0.009 | [7] 0.088 | [8] 0.022

Two neighbouring records from above:
PMM2 (UniProt O15305)
inactive: lapatinib -0.031 | pictilisib -0.006 | crizotinib -0.001 | [1] -0.075 | duvelisib -0.013 | gandotinib 0.037 | tozasertib -0.011 | doramapimod 0.055 | bafetinib 0.018 | [2] 0.056 | nilotinib -0.025 | [3] 0.009 | dasatinib 0.019 | [4] -0.034 | [5] 0.011 | quisinostat 0.02 | tipifarnib 0.044 | [6] 0 | [7] 0.025 | [8] 0.059

PLS3 (UniProt P13797)
inactive: lapatinib -0.013 | pictilisib -0.051 | crizotinib 0.004 | [1] -0.151 | duvelisib 0.036 | gandotinib 0.097 | tozasertib -0.011 | doramapimod -0.008 | bafetinib 0.032 | [2] 0.082 | nilotinib 0.029 | [3] 0.026 | dasatinib 0.018 | [4] 0.024 | [5] -0.019 | quisinostat -0.024 | tipifarnib 0.011 | [6] -0.004 | [7] -0.001 | [8] -0.013

Later entries

PNP (UniProt P00491)
inactive: lapatinib 0.018 | pictilisib 0.011 | crizotinib 0.042 | [1] -0.011 | duvelisib 0.012 | gandotinib 0.013 | tozasertib -0.031 | doramapimod 0.005 | bafetinib 0.068 | [2] -0.015 | nilotinib 0.007 | [3] -0.002 | dasatinib 0.031 | [4] -0.013 | [5] 0.002 | quisinostat 0.001 | tipifarnib 0.003 | [6] 0 | [7] -0.012 | [8] 0.023

PLXNA1 (UniProt Q9UIW2)
inactive: lapatinib -0.014 | pictilisib -0.019 | crizotinib 0.02 | [1] -0.024 | duvelisib 0.034 | gandotinib 0.003 | tozasertib -0.018 | doramapimod -0.009 | bafetinib -0.021 | [2] 0.056 | nilotinib 0.017 | [3] -0.018 | dasatinib 0.007 | [4] 0.038 | [5] -0.03 | quisinostat 0.017 | tipifarnib 0 | [6] 0.016 | [7] 0.014 | [8] 0.02

POLD3 (UniProt Q15054)
inactive: lapatinib 0.03 | pictilisib -0.046 | crizotinib -0.056 | [1] 0.022 | duvelisib -0.033 | gandotinib -0.079 | tozasertib 0.021 | doramapimod 0.001 | bafetinib -0.031 | [2] -0.038 | nilotinib 0.03 | [3] -0.014 | dasatinib -0.002 | [4] 0.029 | [5] 0.007 | quisinostat -0.049 | tipifarnib 0.002 | [6] 0.013 | [7] 0.018 | [8] -0.027

POLR3K (UniProt Q9Y2Y1)
inactive: lapatinib -0.026 | pictilisib -0.048 | crizotinib -0.037 | [1] -0.021 | duvelisib 0.058 | gandotinib 0.063 | tozasertib 0.013 | doramapimod 0.006 | bafetinib 0.046 | [2] 0.028 | nilotinib -0.022 | [3] 0.035 | dasatinib -0.108 | [4] -0.005 | [5] 0.049 | quisinostat -0.008 | tipifarnib 0.035 | [6] -0.012 | [7] 0.015 | [8] -0.009

POT1 (UniProt Q9NUX5)
inactive: lapatinib 0.079 | pictilisib -0.008 | crizotinib -0.015 | [1] 0.027 | duvelisib -0.036 | gandotinib -0.068 | tozasertib 0.005 | doramapimod 0.06 | bafetinib -0.144 | [2] 0.022 | nilotinib -0.011 | [3] -0.017 | dasatinib -0.008 | [4] 0.044 | [5] 0.045 | quisinostat -0.021 | tipifarnib 0.035 | [6] 0.065 | [7] -0.023 | [8] 0.012
